Our source for the binding values is article PMC6251927.

The chains behind the UniProt entries cited, without tags or fusion partners.
UniProt Q9NFU0: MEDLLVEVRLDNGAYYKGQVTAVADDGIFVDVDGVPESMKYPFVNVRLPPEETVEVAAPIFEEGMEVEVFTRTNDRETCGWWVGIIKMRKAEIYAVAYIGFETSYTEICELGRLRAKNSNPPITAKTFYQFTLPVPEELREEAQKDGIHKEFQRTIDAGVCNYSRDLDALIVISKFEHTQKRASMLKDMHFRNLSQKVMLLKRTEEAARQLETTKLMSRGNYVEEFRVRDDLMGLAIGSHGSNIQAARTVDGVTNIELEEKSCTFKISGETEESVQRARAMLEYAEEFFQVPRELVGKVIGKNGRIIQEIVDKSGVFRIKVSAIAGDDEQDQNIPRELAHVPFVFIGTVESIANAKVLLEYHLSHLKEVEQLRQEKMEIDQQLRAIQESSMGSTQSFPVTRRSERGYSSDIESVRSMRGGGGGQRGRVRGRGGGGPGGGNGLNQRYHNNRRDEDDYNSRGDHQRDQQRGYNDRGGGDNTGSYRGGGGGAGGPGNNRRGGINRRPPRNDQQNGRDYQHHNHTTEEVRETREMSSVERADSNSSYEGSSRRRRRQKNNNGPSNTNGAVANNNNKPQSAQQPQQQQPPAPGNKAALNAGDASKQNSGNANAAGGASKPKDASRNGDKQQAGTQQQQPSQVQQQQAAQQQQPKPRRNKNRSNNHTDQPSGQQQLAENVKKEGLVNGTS
UniProt P19109: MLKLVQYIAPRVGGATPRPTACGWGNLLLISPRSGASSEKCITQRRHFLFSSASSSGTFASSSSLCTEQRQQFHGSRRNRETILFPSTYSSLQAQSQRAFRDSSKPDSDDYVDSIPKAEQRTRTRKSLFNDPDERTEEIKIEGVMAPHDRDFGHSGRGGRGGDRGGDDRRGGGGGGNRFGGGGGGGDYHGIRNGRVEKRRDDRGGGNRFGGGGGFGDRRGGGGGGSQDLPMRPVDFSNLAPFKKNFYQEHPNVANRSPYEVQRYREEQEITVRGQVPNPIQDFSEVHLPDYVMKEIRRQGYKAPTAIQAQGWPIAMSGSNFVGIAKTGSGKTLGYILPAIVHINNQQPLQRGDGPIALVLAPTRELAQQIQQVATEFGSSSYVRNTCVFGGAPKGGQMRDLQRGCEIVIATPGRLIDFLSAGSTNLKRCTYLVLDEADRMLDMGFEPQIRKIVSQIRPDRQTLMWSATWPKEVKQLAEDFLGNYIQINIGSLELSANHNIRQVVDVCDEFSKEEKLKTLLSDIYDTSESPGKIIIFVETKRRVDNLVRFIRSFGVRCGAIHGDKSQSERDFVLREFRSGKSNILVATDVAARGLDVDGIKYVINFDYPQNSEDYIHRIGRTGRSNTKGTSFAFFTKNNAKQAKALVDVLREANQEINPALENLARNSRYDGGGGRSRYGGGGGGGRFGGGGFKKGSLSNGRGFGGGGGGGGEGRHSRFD

The target in assay [1] is Drosophila FMRP (Drosophila (endogenous in S2 cells)) (UniProt Q9NFU0). Briefly: co-IP; FMRP IP-Western from S2 cells inactivated of TDRD3 by CRISPR and control cells.
Assay [2] deals with T1, HA-tagged AGO2 (Drosophila) (UniProt Q9VUQ5).
T1 sequence: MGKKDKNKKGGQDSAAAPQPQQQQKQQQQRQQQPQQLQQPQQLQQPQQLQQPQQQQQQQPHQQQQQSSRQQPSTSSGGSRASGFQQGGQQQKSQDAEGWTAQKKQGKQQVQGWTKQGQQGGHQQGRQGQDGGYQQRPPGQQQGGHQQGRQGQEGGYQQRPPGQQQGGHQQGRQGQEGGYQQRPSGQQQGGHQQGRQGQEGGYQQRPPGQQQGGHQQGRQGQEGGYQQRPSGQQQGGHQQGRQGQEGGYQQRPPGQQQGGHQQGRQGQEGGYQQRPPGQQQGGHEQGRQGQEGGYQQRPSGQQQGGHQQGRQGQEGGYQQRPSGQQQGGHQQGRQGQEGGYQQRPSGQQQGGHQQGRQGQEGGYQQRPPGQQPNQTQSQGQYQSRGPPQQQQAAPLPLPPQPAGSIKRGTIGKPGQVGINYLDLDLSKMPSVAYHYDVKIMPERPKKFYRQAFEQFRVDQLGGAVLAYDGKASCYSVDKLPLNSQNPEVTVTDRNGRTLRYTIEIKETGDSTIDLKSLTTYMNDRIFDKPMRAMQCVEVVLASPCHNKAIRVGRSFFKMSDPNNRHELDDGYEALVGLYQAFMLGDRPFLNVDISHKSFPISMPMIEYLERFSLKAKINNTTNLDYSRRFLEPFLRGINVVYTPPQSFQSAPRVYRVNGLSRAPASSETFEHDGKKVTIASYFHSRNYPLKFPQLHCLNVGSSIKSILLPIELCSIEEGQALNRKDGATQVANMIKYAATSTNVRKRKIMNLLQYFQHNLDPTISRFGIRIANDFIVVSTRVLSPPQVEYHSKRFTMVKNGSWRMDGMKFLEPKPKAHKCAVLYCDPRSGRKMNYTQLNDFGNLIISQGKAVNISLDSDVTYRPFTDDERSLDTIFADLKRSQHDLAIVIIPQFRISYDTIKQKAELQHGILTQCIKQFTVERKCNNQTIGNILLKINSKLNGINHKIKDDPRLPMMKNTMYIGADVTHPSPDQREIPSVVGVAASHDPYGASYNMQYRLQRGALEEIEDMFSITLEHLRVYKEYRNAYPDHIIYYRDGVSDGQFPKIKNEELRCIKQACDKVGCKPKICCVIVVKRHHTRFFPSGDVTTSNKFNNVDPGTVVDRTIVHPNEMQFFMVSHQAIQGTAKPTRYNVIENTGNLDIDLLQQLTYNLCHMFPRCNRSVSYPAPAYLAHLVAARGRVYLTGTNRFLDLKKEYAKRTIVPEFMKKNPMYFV
Briefly: co-IP; HA antibody IP from S2 cells transfected with HA-tagged p68, VIG or AGO2, immunoblotting (reciprocal IP-Western). In general terms: Immunoblotting shows a protein as a band on a membrane.

In assay [3] the target is T2, HA-tagged VIG (Drosophila) (UniProt Q9V426).
T2 sequence: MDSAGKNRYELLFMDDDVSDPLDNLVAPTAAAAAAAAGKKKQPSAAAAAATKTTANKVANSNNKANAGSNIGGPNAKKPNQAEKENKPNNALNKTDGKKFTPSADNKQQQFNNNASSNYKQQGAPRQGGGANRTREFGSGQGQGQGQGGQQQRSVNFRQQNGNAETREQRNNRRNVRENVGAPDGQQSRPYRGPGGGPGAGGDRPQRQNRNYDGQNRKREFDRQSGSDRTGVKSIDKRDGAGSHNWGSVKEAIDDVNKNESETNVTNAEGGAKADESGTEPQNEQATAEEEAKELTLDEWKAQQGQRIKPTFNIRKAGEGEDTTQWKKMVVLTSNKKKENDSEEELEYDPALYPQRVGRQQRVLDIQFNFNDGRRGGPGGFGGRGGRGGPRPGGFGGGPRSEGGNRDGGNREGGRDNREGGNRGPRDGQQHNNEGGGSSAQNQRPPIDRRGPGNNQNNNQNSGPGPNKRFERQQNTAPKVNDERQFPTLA
Described as above.

Results are given in words; binding and its absence hold for the method and conditions named. In cells and extracts the contact can be indirect. Some results given as binding are weak or reduced against the parent protein; the word gives no strength. For part of these data: Tags and fused reporters may be left off the sequences shown.

Regarding “p68 RNA helicase (encoded by Rm62) (from UniProt P19109 1-719) (enzyme)”, in assay [1], the binding entry is “binds”.

B1: Drosophila Top3β (Topoisomerase 3β) (enzyme, UniProt O96651 1-875)
chain: MKSVLMVAEKPSLAASLAGILSNGRCTAKRGTGNGCSTHEWTGNFRNEGSVHFRMTSVCGHVMSLDFNKKYNCWDKVDPIQLFGCATEKKETNPKQNMRKFLAHEARGCDYLVLWLDCDKEGENICFEVMDAVKHVINNVYSDQVTYRAHFSAITEKDIKKAMETLGHPNENEAKSVDARQELDLRIGCAFTRFQTKFFQDRYGDLDSSLISYGPCQTPTLGFCVKRHDDIQTFKPESFWHLQLLAGQPEVTLEWARGRVFKKDIAIMLLNRVKEHKKATVESVASKEAYKSKPQALNTVELMRICSSGLGIGPFQAMQIAERLYTQGYISYPRTETNQYPTNFDLPAVLHVLKPSADFGEEARSILGDIQTPRKGKDAGDHPPITPMKLGNRSDFDRDTWRVYEFICRHFMGTVSRDLKYRVTTAKLSVGMETFSCTASVLIDAGFTKVMTWSAFGKDEPQPPFVQGTQVAINDVRLIESQTGPPDYLTESELITLMEEHGIGTDASIPVHINNICQRNYVHIENGRKLMPTTLGIVLVHGYQKIDPELVLPTMRTEVERMLTLIAQGSANFQDVLRHAIKIFKLKFMYFVKNIDSMDALFEVSFSPLAESGKAHSRCGKCRRYMKYIQTKPARLHCSHCDETYALPIGNVKVYREFKCPLDDFDLLAFSTGVKGRSYPFCPYCYNHPPFSDMPHLGGCNTCTNANCPHSLNTLGISSCVECPTGVLVLDCTLAPTWKLGCNRCDVIINCFKGATKITVEEAKCQECGAQQVNVVYKSDKSKFKDGSEEKSGCIFCSADFSHLVEKHRAVASRPVRSGGGFRGGKAGRGGGGMGGAAFGSGGAVTAGGGPNAGGGVRGSRVAKDKMGQLASYFV
In the case of B1, the binding entry in assay [2] and in assay [3] was “binds” throughout.
